Experiment: RRT study: LC-MS/MS urinary proteomics, AKI after cardiac surgery, RRT vs No RRT
Design: species or system human
Conditions: for Mean No RRT / Mean RRT: urine; for Mean No RRT: AKI patients who did not require RRT (n=6); for Mean RRT: AKI patients who required RRT (n=6); for Up or Down: direction of urinary abundance
[1] = RRT vs No RRT, positive = elevated in RRT group
[2] = patients who did vs did not require RRT/dialysis
[3] = patients who did vs did not require RRT/dialysis, read with the Up or Down column

B1: Cystatin-8: urinary protein, Uniprot P04080 (protein, UniProt P04080 1-98, looked up)
Cystatin-B: MMCGAPSATQPATAETQHIADQVRSQLEEKENKKFPVFKAVSFKSQVVAGTNYFIKVHVGDEDFVHLRVFQSLPHENKPLTLSNYQTNKAKHDELTYF
**Q.** Which results are given for B1?
**A.** Mean Fold Change [1]: 11.53; Mean No RRT: 0.43 normalized spectral counts; Mean RRT: 4.94 normalized spectral counts

B2: Phosphatidylethanolamine-binding pritein 1: urinary protein, Uniprot P30086 (protein, UniProt P30086 2-187, looked up)
Phosphatidylethanolamine-bindi …: PVDLSKWSGPLSLQEVDEQPQHPLHVTYAGAAVDELGKVLTPTQVKNRPTSISWDGLDSGKLYTLVLTDPDAPSRKDPKYREWHHFLVVNMKGNDISSGTVLSDYVGSGPPKGTGLHRYVWLVYEQDRPLKCDEPILSNRSGDHRGKFKVASFRKKYELRAPVAGTCYQAEWDDYVPKLYEQLSGK
**Q.** Which “Mean RRT” value does the source give for B2 here?
**A.** Its value is 5.90 normalized spectral counts.

B3: Pigment epithelium-derived factor: urinary protein, Uniprot P36955 (protein, UniProt P36955 20-418, looked up)
Pigment epithelium-derived …: QNPASPPEEGSPDPDSTGALVEEEDPFFKVPVNKLAAAVSNFGYDLYRVRSSTSPTTNVLLSPLSVATALSALSLGAEQRTESIIHRALYYDLISSPDIHGTYKELLDTVTAPQKNLKSASRIVFEKKLRIKSSFVAPLEKSYGTRPRVLTGNPRLDLQEINNWVQAQMKGKLARSTKEIPDEISILLLGVAHFKGQWVTKFDSRKTSLEDFYLDEERTVRVPMMSDPKAVLRYGLDSDLSCKIAQLPLTGSMSIIFFLPLKVTQNLTLIEESLTSEFIHDIDRELKTVQAVLTVPKLKLSYEGEVTKSLQEMKLQSLFDSPDFSKITGKPIKLTQVEHRAGFEWNEDGAGTTPSPGLQPAHLTFPLDYHLNQPFIFVLRDTDTGALLFIGKILDPRGP
**Q.** For B3, which “Mean Fold Change” value [1] is on record?
**A.** Its value is 9.084.

**Q.** And the “Up or Down” value [2]?
**A.** The value was “Up”.

**Q.** And the “Mean Fold Change” value [3]?
**A.** The value was 45.42.

**Q.** And the “Mean No RRT” value?
**A.** Its value is 2.50 normalized spectral counts.

**Q.** And the “Mean RRT” value?
**A.** The value was 22.71 normalized spectral counts.

B4: Zinc-alpha-2-glycoprotein: urinary protein, Uniprot P25311 (protein, UniProt P25311 21-298, looked up)
Zinc-alpha-2-glycoprotein: QENQDGRYSLTYIYTGLSKHVEDVPAFQALGSLNDLQFFRYNSKDRKSQPMGLWRQVEGMEDWKQDSQLQKAREDIFMETLKDIVEYYNDSNGSHVLQGRFGCEIENNRSSGAFWKYYYDGKDYIEFNKEIPAWVPFDPAAQITKQKWEAEPVYVQRAKAYLEEECPATLRKYLKYSKNILDRQDPPSVVVTSHQAPGEKKKLKCLAYDFYPGKIDVHWTRAGEVQEPELRGDVLHNGNGTYQSWVVVAVPPQDTAPYSCHVQHSSLAQPLVVPWEAS
**Q.** For B4, which “Mean Fold Change” value [1] is on record?
**A.** The value was 2.041.

**Q.** What about the “Up or Down” value [2] of the same molecule?
**A.** Its value is “Up”.

**Q.** What about the “Mean Fold Change” value [3] of the same molecule?
**A.** Its value is 2.449.

**Q.** And the “Mean No RRT” value?
**A.** Its value is 112.02 normalized spectral counts.

**Q.** And the “Mean RRT” value?
**A.** The value was 228.64 normalized spectral counts.

B5: Fatty acid-binding protein, adipocyte: urinary protein, Uniprot P15090 (protein, UniProt P15090 2-132, looked up)
Fatty acid-binding protein, …: CDAFVGTWKLVSSENFDDYMKEVGVGFATRKVAGMAKPNMIISVNGDVITIKSESTFKNTEISFILGQEFDEVTADDRKVKSTITLDGGVLVHVQKWDGKSTTIKRKREDDKLVVECVMKGVTSTRVYERA
**Q.** For B5, which “Mean Fold Change” value [1] is on record?
**A.** Its value is 1.598.

**Q.** What about the “Up or Down” value [2] of the same molecule?
**A.** The value was “Up”.

**Q.** And the “Mean Fold Change” value [3]?
**A.** Its value is 7.99.

**Q.** And the “Mean No RRT” value?
**A.** Its value is 6.25 normalized spectral counts.

**Q.** What about the “Mean RRT” value of the same molecule?
**A.** Its value is 9.99 normalized spectral counts.

B6: Coactosin-like protein: urinary protein, Uniprot Q14019 (protein, UniProt Q14019 2-142, looked up)
Coactosin-like protein: ATKIDKEACRAAYNLVRDDGSAVIWVTFKYDGSTIVPGEQGAEYQHFIQQCTDDVRLFAFVRFTTGDAMSKRSKFALITWIGENVSGLQRAKTGTDKTLVKEVVQNFAKEFVISDRKELEEDFIKSELKKAGGANYDAQTE
**Q.** With B6 as the molecule, how does the “Up or Down” value [2] read?
**A.** The value was “Up”.

**Q.** What about the “Mean RRT” value of the same molecule?
**A.** Its value is 3.70 normalized spectral counts.

B7: Alpha-1-acid glycoprotein 2: urinary protein, Uniprot P19652 (protein, UniProt P19652 19-201, looked up)
Alpha-1-acid glycoprotein 2: QIPLCANLVPVPITNATLDRITGKWFYIASAFRNEEYNKSVQEIQATFFYFTPNKTEDTIFLREYQTRQNQCFYNSSYLNVQRENGTVSRYEGGREHVAHLLFLRDTKTLMFGSYLDDEKNWGLSFYADKPETTKEQLGEFYEALDCLCIPRSDVMYTDWKKDKCEPLEKQHEKERKQEEGES
**Q.** Which “Mean Fold Change” value [1] does the source give for B7 here?
**A.** The value was 2.62.

**Q.** What about the “Up or Down” value [2] of the same molecule?
**A.** The value was “Up”.

**Q.** And the “Mean Fold Change” value [3]?
**A.** The value was 2.62.

**Q.** And the “Mean No RRT” value?
**A.** The value was 18.15 normalized spectral counts.

**Q.** And the “Mean RRT” value?
**A.** The value was 47.56 normalized spectral counts.

B8: Brain acid soluble protein 1: urinary protein, Uniprot P80723 (protein, UniProt P80723 2-227, looked up)
Brain acid soluble protein 1: GGKLSKKKKGYNVNDEKAKEKDKKAEGAATEEEGTPKESEPQAAAEPAEAKEGKEKPDQDAEGKAEEKEGEKDAAAAKEEAPKAEPEKTEGAAEAKAEPPKAPEQEQAAPGPAAGGEAPKAAEAAAAPAESAAPAAGEEPSKEEGEPKKTEAPAAPAAQETKSDGAPASDSKPGSSEAAPSSKETPAATEAPSSTPKAQGPAASAEEPKPVEAPAANSDQTVTVKE
**Q.** Which “Mean Fold Change” value [1] does the source give for B8 here?
**A.** Its value is 5.823.

**Q.** And the “Up or Down” value [2]?
**A.** The value was “Up”.

**Q.** And the “Mean Fold Change” value [3]?
**A.** Its value is 14.56.

**Q.** And the “Mean No RRT” value?
**A.** Its value is 0.87 normalized spectral counts.

**Q.** And the “Mean RRT” value?
**A.** Its value is 5.05 normalized spectral counts.

B9: Vitamin D-binding protein: urinary protein, Uniprot P02774 (protein, UniProt P02774 17-474, looked up)
Vitamin D-binding protein: LERGRDYEKNKVCKEFSHLGKEDFTSLSLVLYSRKFPSGTFEQVSQLVKEVVSLTEACCAEGADPDCYDTRTSALSAKSCESNSPFPVHPGTAECCTKEGLERKLCMAALKHQPQEFPTYVEPTNDEICEAFRKDPKEYANQFMWEYSTNYGQAPLSLLVSYTKSYLSMVGSCCTSASPTVCFLKERLQLKHLSLLTTLSNRVCSQYAAYGEKKSRLSNLIKLAQKVPTADLEDVLPLAEDITNILSKCCESASEDCMAKELPEHTVKLCDNLSTKNSKFEDCCQEKTAMDVFVCTYFMPAAQLPELPDVELPTNKDVCDPGNTKVMDKYTFELSRRTHLPEVFLSKVLEPTLKSLGECCDVEDSTTCFNAKGPLLKKELSSFIDKGQELCADYSENTFTEYKKKLAERLKAKLPDATPTELAKLVNKHSDFASNCCSINSPPLYCDSEIDAELKNIL
**Q.** Which “Mean Fold Change” value [1] does the source give for B9 here?
**A.** The value was 12.11.

**Q.** And the “Up or Down” value [2]?
**A.** The value was “Up”.

**Q.** What about the “Mean Fold Change” value [3] of the same molecule?
**A.** The value was 24.22.

**Q.** What about the “Mean No RRT” value of the same molecule?
**A.** Its value is 4.51 normalized spectral counts.

**Q.** What about the “Mean RRT” value of the same molecule?
**A.** Its value is 54.58 normalized spectral counts.
